Measured values reported in patent US6890706B2, “Process for removing stain in a photographic material” (Ciba Specialty Chemicals Corporation, priority 1999, dated 2005).

What was measured:
[1] = Stain removal: CIE-L*a*b* of the white of paper developed in model processing solution with optical brightener; conditions: Agfa Typ10
[2] = as above; conditions: Kodak Edge5
[3] = as above; conditions: Fuji SFAVIII
[4] = as above; conditions: Konica QA6; 1.0 g/L active substance in developer
[5] = 0.5 g/L active substance in developer
[6] = 1.0 g/L active substance in developer

| Compound | C (Chrominance) [1, 5] | H (Hue) [1, 5] | L* [1, 5] | a* [1, 5] | b* [1, 5] | C (Chrominance) [1, 6] | H (Hue) [1, 6] | L* [1, 6] | a* [1, 6] | b* [1, 6] | C (Chrominance) [2, 6] | H (Hue) [2, 6] | L* [2, 6] | a* [2, 6] | b* [2, 6] | C (Chrominance) [3, 5] | H (Hue) [3, 5] | L* [3, 5] | a* [3, 5] | b* [3, 5] | other results |
| --- | --- | --- | --- | --- | --- | --- | --- | --- | --- | --- | --- | --- | --- | --- | --- | --- | --- | --- | --- | --- | --- |
| O=CCC(Nc1nc(Nc2ccc(/C=C/c3ccc(Nc4nc(NC(CC(=O)[O-])C(=O)[O-])nc(NC(CC(=O)[O-])C(=O)[O-])n4)cc3S(=O)(=O)[O-])c(S(=O)(=O)[O-])c2)nc(NC(CC(=O)[O-])C(=O)[O-])n1)C(=O)[O-].[Na+].[Na+].[Na+].[Na+].[Na+].[Na+].[Na+].[Na+].[Na+].[Na+].[OH-] (stereo not drawn) [D] | 1.20 | 90 | 90.11 | 0.1 | 1.2 | 1.00 | 90 | 90.22 | 0.1 | 1.0 | – | – | – | – | – | – | – | – | – | – | – |
| O=C([O-])CN(CC(=O)[O-])c1nc(Nc2ccccc2)nc(Nc2ccc(/C=C/c3ccc(Nc4nc(Nc5ccccc5)nc(N(CC(=O)[O-])CC(=O)[O-])n4)cc3S(=O)(=O)[O-])c(S(=O)(=O)[O-])c2)n1.[Na+].[Na+].[Na+].[Na+].[Na+].[Na+] [E] | 0.21 | 332 | 90.16 | 0.2 | −0.1 | 0.54 | 292 | 90.24 | 0.2 | −0.5 | 1.90 | 90 | 90.03 | 0.0 | 1.9 | 1.33 | 78 | 90.17 | 0.3 | 1.3 | C (Chrominance) [3, 6]: 0.87; H (Hue) [3, 6]: 67; L* [3, 6]: 90.28; a* [3, 6]: 0.4; b* [3, 6]: 0.8 |
| O=C(O)CN(CC(=O)O)c1nc(Nc2ccc(/C=C/c3ccc(Nc4nc(Nc5cc(S(=O)(=O)O)ccc5S(=O)(=O)O)nc(N(CC(=O)O)CC(=O)O)n4)cc3S(=O)(=O)O)c(S(=O)(=O)O)c2)nc(Nc2cc(S(=O)(=O)O)ccc2S(=O)(=O)O)n1.[Na+].[Na+].[Na+].[Na+].[Na+].[Na+].[Na+].[Na+].[Na+].[Na+] [G] | 0.21 | 332 | 90.24 | 0.2 | −0.1 | 1.04 | 286 | 90.29 | 0.3 | −1.0 | 1.02 | 259 | 90.78 | −0.2 | −1.0 | 0.76 | 67 | 90.17 | 0.4 | 0.7 | C (Chrominance) [4]: 1.41; H (Hue) [4]: 83; L* [4]: 90.85; a* [4]: 0.2; b* [4]: 1.4; C (Chrominance) [2, 5]: 0.72; H (Hue) [2, 5]: 256; L* [2, 5]: 90.65; a* [2, 5]: −0.3; b* [2, 5]: −0.7; C (Chrominance) [3, 6]: 0.45; H (Hue) [3, 6]: 26; L* [3, 6]: 90.19; a* [3, 6]: 0.4; b* [3, 6]: 0.2 |
| CN(CC(=O)[O-])c1nc(Nc2ccc(/C=C/c3ccc(Nc4nc(Nc5cc(S(=O)(=O)[O-])ccc5S(=O)(=O)[O-])nc(N(C)CC(=O)[O-])n4)cc3S(=O)(=O)[O-])c(S(=O)(=O)[O-])c2)nc(Nc2cc(S(=O)(=O)[O-])ccc2S(=O)(=O)[O-])n1.[Na+].[Na+].[Na+].[Na+].[Na+].[Na+].[Na+].[Na+] [H] | – | – | – | – | – | – | – | – | – | – | 1.92 | 262 | 90.79 | −0.3 | −1.9 | 0.72 | 284 | 90.28 | 0.3 | −0.7 | C (Chrominance) [2, 5]: 1.70; H (Hue) [2, 5]: 270; L* [2, 5]: 90.81; a* [2, 5]: −0.1; b* [2, 5]: −1.7; C (Chrominance) [3, 6]: 1.22; H (Hue) [3, 6]: 280; L* [3, 6]: 90.31; a* [3, 6]: 0.2; b* [3, 6]: −1.2 |
